Measurements reported in PubChem BioAssay AID686943 (Drosophila RNAi Screening Center, 2013).

Assay: 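Fly genes whose loss alters ERK activation after insulin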 (primary screen)
System: Drosophila S2R+ haemocyte-like cells expressing YFP-tagged ERK (Rolled)
Knock-down reagent: long dsRNA against Drosophila genes
Conditions: insulin stimulation versus unstimulated cells; dose and duration not given
Measurement: 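Antibody staining for doubly phosphorylated ERK divided by ERK-YFP signal, as plate z-scores, in insulin-treated and untreated cells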
Reading the numbers: replicate 1, z-score of dpERK with insulin and replicate 2, z-score of dpERK with insulin: higher = more active ERK per ERK-YFP after insulin
The deposit covers about 23,000 reagents; this is an unselected part of those that have a named target and a result. 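Extra replicates exist only for a retested subset of genes; insulin dose and duration not given; both raised and lowered dpERK matter.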 A plus sign joins genes that one reagent is predicted to hit. Not all columns of the deposit are shown. Reagent sequences are not shown. Not stated in the record: the amount of reagent, the time to read-out.

gene | dsRNA | replicate 1, z-score of dpERK with insulin | replicate 2, z-score of dpERK with insulin
Sps1 (GeneID 36587) | DRSC07549 | -1.9 | -2.03
ninaA (GeneID 33271) | DRSC00830 | 0.14 | 0.76
Cpr49Af (GeneID 36352) | DRSC07202 | 0.24 | 0.4
AspRS-m (GeneID 326155) | DRSC02646 | 0.91 | 0.17
Dhc64C (GeneID 38580) | DRSC08656 | 0.64 | -0.4
CG12607 (GeneID 38547) | DRSC08287 | 1.27 | 0.24
tun (GeneID 36743) | DRSC05592 | 1.95 | 0.37
tun (GeneID 36743) | DRSC07127 | 0.86 | -0.01
CG7341 (GeneID 40004) | DRSC10818 | -0.22 | -0.05
CG14795 (GeneID 31109) | DRSC18513 | 0.64 | 0.93
Pdzd8 (GeneID 32157) | DRSC19355 | 2.02 | 1.51
ppk (GeneID 34843) | DRSC03595 | 0.4 | 0.44
Sc2 (GeneID 38457) | DRSC08162 | 0.61 | -0.39
CG14566 (GeneID 40421) | DRSC11727 | 0.42 | -0.06
Obp50e (GeneID 36600) | DRSC06434 | 0.25 | 0.77
Bap170 (GeneID 35560) | DRSC04964 | 0.79 | -0.15
Bap170 (GeneID 35560) | DRSC21826 | -0.11 | -0.1
eIF3m (GeneID 36565) | DRSC07142 | -1.13 | -2.01
Gr94a (GeneID 117339) | DRSC13597 | 2.26 | 0.34

Part of the list above, reduced to “replicate 2, z-score of dpERK with insulin”:
ppk (GeneID 34843) [DRSC03595]	0.44
Sc2 (GeneID 38457) [DRSC08162]	-0.39
CG14566 (GeneID 40421) [DRSC11727]	-0.06
Obp50e (GeneID 36600) [DRSC06434]	0.77
Bap170 (GeneID 35560) [DRSC04964]	-0.15
Bap170 (GeneID 35560) [DRSC21826]	-0.1
eIF3m (GeneID 36565) [DRSC07142]	-2.01

Next records follow:
gene | dsRNA | replicate 1, z-score of dpERK with insulin | replicate 2, z-score of dpERK with insulin
Zip88E (GeneID 41847) | DRSC15562 | 0.08 | 0.39
Scp2 (GeneID 42015) | DRSC13166 | 0.22 | 0.19
Scp2 (GeneID 42015) | DRSC16854 | -0.06 | 0.04
Secp43 (GeneID 33652) | DRSC00454 | 0.87 | 1.44
robo3 (GeneID 33314) | DRSC00374 | 0.01 | -0.19
robo3 (GeneID 33314) | DRSC00375 | 0.55 | -0.19
robo3 (GeneID 33314) | DRSC00684 | 0 | -0.26
CG14483 (GeneID 36995) | DRSC06455 | -0.27 | 0.4
CG8851 (GeneID 33575) | DRSC00718 | -0.04 | -0.61
cv-d (GeneID 41921) | DRSC16522 | 0.4 | 0.77
cv-d (GeneID 41921) | DRSC16524 | -0.06 | 0.43
cv-d (GeneID 41921) | DRSC16526 | 0.22 | 0.61
Ldh (GeneID 45880) | DRSC11198 | 1.38 | 0.55
CG13733 (GeneID 39951) | DRSC10061 | -0.16 | -0.04
CG9222 (GeneID 33867) | DRSC03158 | -0.83 | 0.18
CG11699 (GeneID 32101) | DRSC19419 | 0.58 | 0.45
Indy-2 + CG33934 | DRSC15685 | -0.4 | -1.35
Indy-2 + CG33934 | DRSC15686 | -0.31 | 1.53
Keap1 (GeneID 42062) | DRSC15528 | 0.32 | -0.21
ppk27 (GeneID 38440) | DRSC08168 | 1.23 | 0.53
ppk27 (GeneID 38440) | DRSC22211 | -0.51 | 0.37
yellow-g2 (GeneID 38295) | DRSC08338 | 0.38 | 1.29
asRNA:CR31845 (GeneID 12798199) | DRSC22257 | -0.13 | -0.96
Or35a (GeneID 34918) | DRSC03389 | 0.78 | 0
Caf1-180 (GeneID 31801) | DRSC17807 | -0.88 | -0.97
Pex10 (GeneID 38182) | DRSC08599 | 0.4 | 1.89
Pex10 (GeneID 38182) | DRSC22021 | 0.22 | 0.43
Cog7 (GeneID 43547) | DRSC16331 | 1.38 | 0.03
CG11227 (GeneID 33071) | DRSC20476 | 0.05 | 0.03
Akap200 (GeneID 34170) | DRSC01864 | -0.78 | -0.46
HHEX (GeneID 42495) | DRSC16186 | -0.77 | 0.67
p23 (GeneID 41173) | DRSC15158 | -0.43 | 0.58
CG15528 (GeneID 43575) | DRSC15065 | 0.26 | 0.18
Gpo3 (GeneID 34776) | DRSC01978 | 0.71 | -0.78
Mst85C (GeneID 41089) | DRSC16746 | -0.17 | -1.15
CG6294 + CG6299 + CG15642 | DRSC19981 | 0.64 | 1.11
Or59b (GeneID 37715) | DRSC04632 | -1.33 | -1.43
lectin-21Cb (GeneID 33242) | DRSC00355 | 0.3 | -0.38
